Some entries share one result that the patent states for a list of compounds. Some ranges recur; such a range may be that of the whole group of compounds.
System: PC-3 PIP/flu tumor-bearing mice
Experiment: Biodistribution study in PC-3 PIP/flu tumor-bearing mice
Assay type: in vivo, athymic nude Balb/c mice
Details: for PC-3 PIP Tumor: PSMA-positive tumor xenograft, mice; for Kidneys: 1 h p.i.; for Kidneys / Tumor-to-blood / Blood: PC-3 PIP/flu tumor-bearing mice
Protocol: In vivo experiments were approved by the local veterinarian department and conducted in accordance with the Swiss law of animal protection. Mice were obtained from Charles River Laboratories, Sulzfeld, Germany, at the age of 5-6 weeks. Female, athymic nude Balb/c mice were subcutaneously inoculated with PSMA-positive PC-3 PIP cells (6×10^6 cells in 100 μL Hank's balanced salt solution (HBSS) with Ca^2+/Mg^2+) on the right shoulder and with PSMA-negative PC-3 flu cells (5×10^6 cells in 100 μL HBSS Ca^2+/Mg^2+) on the left shoulder. Two weeks later, the tumors reached a size of about 80-300 mm^3 suitable for the performance of the biodistribution studies.
Biodistribution studies were performed 12-15 days after PC-3 PIP/flu tumor cell inoculation. […] The radioligands were injected in a lateral tail vein in a volume of 100-200 μL. Mice were euthanized at different time points after injection (p.i.) of the radioligands. Selected tissues and organs were collected, weighed and measured using a γ-counter. The results were decay-corrected and listed as a percentage of the injected activity per gram of tissue mass (% IA/g) (Table 3 and 4).
Mice were obtained from Charles River Laboratories, Sulzfeld, Germany, at the age of 5-6 weeks. Female, athymic nude BALB/c mice were subcutaneously inoculated with PSMA-positive PC-3 PIP cells (6×10^6 cells in 100 μL Hank's balanced salt solution (HBSS)) on the right shoulder and with PSMA-negative PC-3 flu cells (5×10^6 cells in 100 μL HBSS) on the left shoulder. Two weeks later, the tumors reached a size of about 80-300 mm^3 suitable for the performance of the biodistribution and imaging studies.
Biodistribution studies were performed 12-15 days after PC-3 PIP/flu tumor cell inoculation. ^177Lu-Ibu-sPSMA was diluted in 0.9% NaCl containing 0.05% bovine serum albumin (BSA) to prevent adhesion to the vial and syringe material. The radioligand was injected in a lateral tail vein in a volume of 100 μL. Mice were euthanized at different time points after injection (p.i.) of the radioligand. Selected tissues and organs were collected, weighed and measured using a γ-counter. The results were decay-corrected and listed as a percentage of the injected activity per gram of tissue mass (% IA/g) (Table 6, FIG. 18).

| Structure (SMILES) | PC-3 PIP Tumor (4 h p.i.) | Kidneys | Tumor-to-blood (4 h p.i.) | Blood (24 h p.i.) [% IA/g] | Blood (24 h p.i., listed as 177Lu-Lbu-Dα-PSMA) [% IA/g] | PC-3 PIP Tumor (24 h p.i.) |
| --- | --- | --- | --- | --- | --- | --- |
| CC(C)Cc1ccc(C(C)C(=O)NC(CC(=O)NCCCCC(NC(=O)CN2CCN(CC(=O)O)CCN(CC(=O)O)CCN(CC(=O)O)CC2)C(=O)NCC2CCC(C(=O)NC(Cc3ccc4ccccc4c3)C(=O)NCCCCC(NC(=O)NC(CCC(=O)O)C(=O)O)C(=O)O)CC2)C(=O)O)cc1 (centres unmarked) [^177Lu-Ibu-Dβ-PSMA, metal not drawn] | 65-66 % IA/g | – | – | – | – | – |
| CC(C)Cc1ccc(C(C)C(=O)NCCCCC(NC(=O)CN2CCN(CC(=O)O)CCN(CC(=O)O)CCN(CC(=O)O)CC2)C(=O)NCC2CCC(C(=O)NC(Cc3ccc4ccccc4c3)C(=O)NCCCCC(NC(=O)NC(CCC(=O)O)C(=O)O)C(=O)O)CC2)cc1 (centres unmarked) [^177Lu-Ibu-PSMA, metal not drawn] | – | 30-33 % IA/g | 14-23 | < 0.6 | – | – |
| CC(C)Cc1ccc(C(C)C(=O)NC(CC(=O)O)C(=O)NCCCCC(NC(=O)CN2CCN(CC(=O)O)CCN(CC(=O)O)CCN(CC(=O)O)CC2)C(=O)NCC2CCC(C(=O)NC(Cc3ccc4ccccc4c3)C(=O)NCCCCC(NC(=O)NC(CCC(=O)O)C(=O)O)C(=O)O)CC2)cc1 (centres unmarked) [^177Lu-Ibu-Dα-PSMA, metal not drawn] | – | – | 14-23 | – | < 0.6 | – |
| CC(C)Cc1ccc(C(C)C(=O)NC(CCN)C(=O)NCCCCC(NC(=O)CN2CCN(CC(=O)O)CCN(CC(=O)O)CCN(CC(=O)O)CC2)C(=O)NCC2CCC(C(=O)NC(Cc3ccc4ccccc4c3)C(=O)NCCCCC(NC(=O)NC(CCC(=O)O)C(=O)O)C(=O)O)CC2)cc1 (centres unmarked) [^177Lu-Ibu-DAB-PSMA, metal not drawn] | 65-66 % IA/g | 30-33 % IA/g | 14-23 | – | – | 52-58 % IA/g |
| CC(C)Cc1ccc(C(C)C(=O)NC(CC(N)=O)C(=O)NCCCCC(NC(=O)CN2CCN(CC(=O)O)CCN(CC(=O)O)CCN(CC(=O)O)CC2)C(=O)NCC2CCC(C(=O)NC(Cc3ccc4ccccc4c3)C(=O)NCCCCC(NC(=O)NC(CCC(=O)O)C(=O)O)C(=O)O)CC2)cc1 (centres unmarked) [^177Lu-Ibu-N-PSMA, metal not drawn] | 65-66 % IA/g | 30-33 % IA/g | 14-23 | – | – | 52-58 % IA/g |

Reference: US20220024882A1, “NOVEL TUMOR ANTIGEN BINDING AGENTS AND USES THEREOF” (ITM Isotopen Technologien München AG, priority 2018, published 2022)
